## Primary screen of a compound library

Protein sequences, listed by entry. Tags and fused reporters are not part of them.
UniProt E9BF75, entry or part of it: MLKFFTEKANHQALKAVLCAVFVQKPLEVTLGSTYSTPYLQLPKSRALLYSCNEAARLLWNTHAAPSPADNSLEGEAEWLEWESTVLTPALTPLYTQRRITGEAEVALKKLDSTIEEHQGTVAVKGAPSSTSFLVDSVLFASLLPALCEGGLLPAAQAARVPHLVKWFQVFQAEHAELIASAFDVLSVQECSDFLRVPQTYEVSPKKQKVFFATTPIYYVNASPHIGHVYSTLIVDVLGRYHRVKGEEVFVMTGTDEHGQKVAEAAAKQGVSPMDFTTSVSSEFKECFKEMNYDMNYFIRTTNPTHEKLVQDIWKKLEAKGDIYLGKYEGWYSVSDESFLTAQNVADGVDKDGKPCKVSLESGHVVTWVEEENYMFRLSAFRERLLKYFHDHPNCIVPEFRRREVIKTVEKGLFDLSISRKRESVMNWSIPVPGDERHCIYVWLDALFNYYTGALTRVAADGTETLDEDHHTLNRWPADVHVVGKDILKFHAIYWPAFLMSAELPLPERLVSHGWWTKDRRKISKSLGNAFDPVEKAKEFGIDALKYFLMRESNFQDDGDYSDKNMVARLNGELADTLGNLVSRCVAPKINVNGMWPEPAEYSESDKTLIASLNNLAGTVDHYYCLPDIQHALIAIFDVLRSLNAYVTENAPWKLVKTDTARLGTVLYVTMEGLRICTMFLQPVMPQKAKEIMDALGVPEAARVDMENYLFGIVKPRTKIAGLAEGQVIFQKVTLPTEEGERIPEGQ

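Methionyl-tRNA synthetase (putative), Leishmania donovani (UniProt E9BF75). Primary screen of methionyl-tRNA synthetase; the read-out is not stated. The test concentration is not given. The values are filed as inhibition. Of about 68,000 compounds tested this way, about 24 (0.035%) reached 50% or more in at least one test.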

Results are percentages, as filed. The controls that fix the scale are not given in the record; negative values are as filed. This is an unselected part of the compounds tested.

| # | Compound | Inhibition |
|---|---|---|
| 1 | `c1cncc(-c2cccc(-c3ccn(CCN4CCCCC4)n3)c2)c1` | 4.982 |
| 2 | `Cc1ccoc1C(=O)N1CC[C@@H]2O[C@@H](C)C[C@H]2C1` | 1.075 |
| 3 | `CCc1ncc(CN2CCC(Oc3ccccc3OC)CC2)cn1` | 18.04 |
| 4 | `O=C(NCc1cn2c(n1)CN(Cc1ccncc1)CC2)C1CCC1` | 8.148 |
| 5 | `Cc1ccc(S(=O)(=O)NC(=O)COc2ccc(CC#N)cc2)s1` | 0.2639 |
| 6 | `NC(=O)CC1CCN(S(=O)(=O)c2cnn(-c3ccccc3)c2)CC1` | 10.68 |
| 7 | `CN(Cc1ccco1)C[C@H]1OC[C@@H]2CCN(Cc3ccsc3)C[C@@H]21` | 1.613 |
| 8 | `COC(=O)C1CCN(C(=O)CN2CCN(c3cccc(C)c3)CC2)CC1` | 13.5 |
| 9 | `O=C1Nc2ccccc2NC12CCN(c1cccc(C(F)(F)F)n1)CC2` | 6.803 |
| 10 | `CCc1[nH]c2c(CNC(=O)C3CCS(=O)(=O)CC3)cc(C)cc2c1C` | 9.045 |
| 11 | `Fc1ccc(-c2noc(C3COCCO3)n2)cc1F` (centres undefined) | 14.08 |
| 12 | `Cn1ccnc1CN1CCN(c2ncnc3ccsc23)CC1` | 14.89 |
| 13 | `Cc1ccc(C(NCC(=O)N2CCNC(=O)C2)C(F)(F)F)cc1` (centres undefined) | 14.37 |
| 14 | `Cc1cc(C)c(S(=O)(=O)Nc2c(C)noc2C)cc1C(=O)O` | 8.078 |
| 15 | `O=C(c1ccsc1)N1C[C@@H]2CCN(c3cccnc3)C[C@@H]2C1` | 11.75 |
| 16 | `NC[C@H]1CC[C@H](C(NC(=O)C2CC2)c2ccccn2)CC1` (some centres undefined) | 10.59 |
| 17 | `COc1cc(CNC(C)Cn2cccn2)cc(OC)c1` (centres undefined) | 23.08 |
| 18 | `Cc1ccsc1CN(Cc1ncccc1C(=O)O)C1CC1` | 0.2564 |
| 19 | `CC(C)(C)n1ncc2c1CCCC2NCc1ccsc1` (centres undefined) | 11.6 |
| 20 | `O=C1CCCN1CCC1CCN(C2CCC3(CCNCC3)CC2)CC1` | -15.52 |
| 21 | `CCn1cc(NC(=O)CN2C(=O)CC(C)(C)c3ccccc32)cn1` | 13.98 |
| 22 | `CC(=O)NCCc1ncnn1-c1ccc(F)c(Cl)c1` | 11.6 |
| 23 | `Cc1cccc(S(=O)(=O)NC2CCN(CC(F)(F)F)C2)c1` (centres undefined) | 15.33 |
| 24 | `CN(C)C(=O)N1CCN(Cc2ccccc2)[C@@H]2CS(=O)(=O)C[C@@H]21` | 7.609 |
| 25 | `COCc1cc(N(C)Cc2ccccn2)nc(C(C)(C)C)n1` | 2.446 |
| 26 | `O=C1NCCCCC1Sc1nnc(C2CC2)n1C1CC1` (centres undefined) | 5.419 |
| 27 | `Oc1ccccc1N1CCN(c2ncnc3sc4c(c23)CCNC4)CC1` | 3.733 |
| 28 | `O=c1[nH]c(NCc2cccc(-c3ccccc3)c2)nc2c1CCNC2` | 18.51 |
| 29 | `CN(Cc1ccncc1)C(=O)[C@H]1CSCN1C(=O)OC(C)(C)C` | 23.3 |
| 30 | `CCc1ccsc1C(=O)NC(C#N)CC` (centres undefined) | 19.68 |
| 31 | `O=C(c1cocn1)N1CCC2(CC1)COC(COCc1ccccn1)C2` (centres undefined) | 5.842 |
| 32 | `COc1ccccc1N1CCCC(NC(=O)Nc2cccnc2)C1` (centres undefined) | 19.64 |
| 33 | `CN1CCCCC1CCC(=O)NCCSc1cnn[nH]1` (centres undefined) | 12.27 |
| 34 | `Cc1cc(C)nc(NC2CC(=O)N(C(C)(C)C)C2)n1` (centres undefined) | 18.21 |
| 35 | `CC(C)[C@@H]1CN(Cc2ccsc2)C[C@H]1NS(=O)(=O)N(C)C` | 8.289 |
| 36 | `COCCn1cc(NC(=O)C(C)CCc2ccccc2F)ccc1=O` (centres undefined) | 6.272 |
| 37 | `Cc1cc(C(F)(F)F)nn1CC(C)C(=O)NC(C)C` (centres undefined) | -43.97 |
| 38 | `Cc1csc(Nc2nccnc2C2CCCN2CC(N)=O)n1` (centres undefined) | 5.882 |
| 39 | `COc1ccc(F)cc1S(=O)(=O)N1CCC(Oc2ccc(Cl)cn2)CC1` | 14.39 |
| 40 | `CCN1CCOC(CNCc2ccccc2OCC(=O)N(C)C)C1` (centres undefined) | 6.299 |
| 41 | `CCOCCC(=O)Nc1cccc(Oc2ccccn2)c1` | 2.113 |
| 42 | `CC(O)CNc1nc(-c2cccnc2)nc2c1CCC2` (centres undefined) | 15.21 |
| 43 | `CCc1ccc(CN2CCCC(CO)(CCOC)C2)cc1` (centres undefined) | 8.55 |
| 44 | `CC(C)c1n[nH]c(C2CN(C(=O)c3cccc4cn[nH]c34)CCO2)n1` (centres undefined) | 11.81 |
| 45 | `COc1ccc(CCc2nnc(NC(=O)C3CC34CCC4)s2)cc1OC` (centres undefined) | 20.31 |
| 46 | `CC(C)c1nc(C2CCCN2C(=O)c2cc(Cl)c[nH]2)no1` (centres undefined) | 16.25 |
| 47 | `Cc1ccccc1Cn1cnc2oc(C)c(C(=O)O)c2c1=O` | 17.09 |
| 48 | `CCn1nccc1S(=O)(=O)N1CCC2(CCCN(C(C)C)C2=O)C1` (centres undefined) | 8.798 |
| 49 | `Cc1nc2c(c(=O)[nH]1)CN(C(=O)CCC1CCCN(C)C1)C2` (centres undefined) | 7.563 |
| 50 | `NC(=O)C(NC(=O)CSCc1ccc(Cl)s1)c1ccccc1` (centres undefined) | 7.258 |
| 51 | `COCc1nc(CN2CC(C)(c3ccccc3)CCC2=O)no1` (centres undefined) | 16.88 |
| 52 | `CC(C)N(C)Cc1n[nH]c2c1CCN(C(=O)c1cc[nH]n1)C2` | 14.11 |
| 53 | `COc1ccccc1-c1ccnc2nc(N3CCCCC3)[nH]c(=O)c12` | 12 |
| 54 | `CC(C)(CNCc1ccc(OCc2cscn2)cc1)C(N)=O` | 8.042 |
| 55 | `O=C(NCCNc1cnccn1)N1CCCC(N2CCCC2)C1` (centres undefined) | 9.117 |
| 56 | `Cc1cc(CS(=O)(=O)CC(=O)N2c3ccccc3CC2C)no1` (centres undefined) | 5.398 |
| 57 | `Nc1ncnc2nc(C3CCN(C(=O)Cc4ccc(F)cc4)C3)ccc12` (centres undefined) | 11.21 |
| 58 | `CNc1ccnc(N2CC[C@@](O)(C3CCOCC3)[C@H](C)C2)n1` | 2.448 |
| 59 | `N#CCc1ccc(NC(=O)N[C@H](CO)Cc2ccc(O)cc2)cc1` | 5.74 |
| 60 | `CCCC(C#N)NC(=O)CCCOc1cccc(F)c1` (centres undefined) | 16.19 |
| 61 | `O=C(NCc1nnc2n1CCC2)c1cn(-c2ccccc2)nn1` | 13.56 |
| 62 | `Cn1cc(C(=O)NCc2cncc3c2CCN(S(C)(=O)=O)C3)cn1` | 8.798 |
| 63 | `CN1C(=O)[C@H]2CC[C@@H]1CN(Cc1cccc(OCc3ccccn3)c1)C2` | 8.803 |
| 64 | `CCC[C@H]1CN(S(C)(=O)=O)C[C@@H]1NC(=O)c1ccc(COC)cc1` | 20 |
| 65 | `COc1c(F)cc(-c2cn(CCn3c(C)cc(C)nc3=O)nn2)cc1Cl` | 3.093 |

Once more, the final 8:

| Compound | Inhibition |
|---|---|
| `CNc1ccnc(N2CC[C@@](O)(C3CCOCC3)[C@H](C)C2)n1` | 2.448 |
| `N#CCc1ccc(NC(=O)N[C@H](CO)Cc2ccc(O)cc2)cc1` | 5.74 |
| `CCCC(C#N)NC(=O)CCCOc1cccc(F)c1` (centres undefined) | 16.19 |
| `O=C(NCc1nnc2n1CCC2)c1cn(-c2ccccc2)nn1` | 13.56 |
| `Cn1cc(C(=O)NCc2cncc3c2CCN(S(C)(=O)=O)C3)cn1` | 8.798 |
| `CN1C(=O)[C@H]2CC[C@@H]1CN(Cc1cccc(OCc3ccccn3)c1)C2` | 8.803 |
| `CCC[C@H]1CN(S(C)(=O)=O)C[C@@H]1NC(=O)c1ccc(COC)cc1` | 20 |
| `COc1c(F)cc(-c2cn(CCn3c(C)cc(C)nc3=O)nn2)cc1Cl` | 3.093 |

Measurements from “University of Dundee, Small-Polar-MMV Screening Library” (2021), ChEMBL document CHEMBL3988442.